Values quoted from earlier work, collected in US9044570B2, “Medical devices to facilitate tissue stabilization for heart failure” (Vatrix Medical, Inc., priority 2009, dated 2015).
At least one structure is not confirmed: it was looked up by name or label, or the drawing left a doubt.

Tested on: abdominal aorta in a clinically relevant model of aortic aneurysms
Conditions: periarterial treatment

With O=C(OC[C@H]1O[C@@H](OC(=O)c2cc(O)c(O)c(O)c2)[C@H](OC(=O)c2cc(O)c(O)c(O)c2)[C@@H](OC(=O)c2cc(O)c(O)c(O)c2)[C@@H]1OC(=O)c1cc(O)c(O)c(O)c1)c1cc(O)c(O)c(O)c1 [PGG, Pentagalloylglucose] as the molecule, how does the “aneurysmal dilatation of the abdominal aorta” value read?
The value was “hinders aneurysmal dilatation of the abdominal aorta”.

And the elastin fiber integrity?
The elastin fiber integrity was “preserves elastin fiber integrity”.
